Earlier results, collected in patent US20250090820A1, “LOCALIZED DRUG DELIVERY TO PREVENT VASCULAR RESTENOSIS” (Ohio State Innovation Foundation, priority 2022, published 2025).
At least one structure is not confirmed: it was looked up by name or label, or the drawing left a doubt.

Conditions: drug-eluting PCL cuffs; cited from earlier work

## CO[C@H]1C[C@@H]2CC[C@@H](C)[C@@](O)(O2)C(=O)C(=O)N2CCCC[C@H]2C(=O)O[C@H]([C@H](C)C[C@@H]2CC[C@@H](O)[C@H](OC)C2)CC(=O)[C@H](C)/C=C(\C)[C@@H](O)[C@@H](OC)C(=O)[C@H](C)C[C@H](C)/C=C/C=C/C=C/1C [rapamycin]
  duration of sustained drug release: approximately 3 weeks
